Reference: US20100254901, “Compositions comprising nucleic acid aptamers” (published 2010)
Tags and fusion partners may be left off the protein sequences shown.

Molecular target: T1, Carcinoembryonic antigen (CEA) (Homo sapiens) (UniProt P06731)
T1 sequence (looked up, limits assumed): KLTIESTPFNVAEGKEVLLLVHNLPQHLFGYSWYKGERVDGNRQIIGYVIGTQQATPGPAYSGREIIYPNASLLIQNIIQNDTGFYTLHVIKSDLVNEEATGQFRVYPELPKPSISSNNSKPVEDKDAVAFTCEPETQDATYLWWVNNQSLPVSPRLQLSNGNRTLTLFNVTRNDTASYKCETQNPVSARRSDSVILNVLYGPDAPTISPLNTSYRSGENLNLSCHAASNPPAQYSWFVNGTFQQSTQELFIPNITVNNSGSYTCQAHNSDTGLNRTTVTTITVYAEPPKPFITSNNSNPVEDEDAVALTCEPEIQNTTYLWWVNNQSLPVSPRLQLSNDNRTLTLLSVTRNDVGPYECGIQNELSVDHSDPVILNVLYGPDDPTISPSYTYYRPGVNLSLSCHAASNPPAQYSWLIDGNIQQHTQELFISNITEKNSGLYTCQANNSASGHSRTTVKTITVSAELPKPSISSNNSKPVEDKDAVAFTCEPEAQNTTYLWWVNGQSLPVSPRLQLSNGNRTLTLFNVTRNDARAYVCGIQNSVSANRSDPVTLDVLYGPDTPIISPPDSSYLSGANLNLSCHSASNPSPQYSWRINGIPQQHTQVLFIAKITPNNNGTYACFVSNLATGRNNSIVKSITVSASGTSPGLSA
Test: FP
Details: no binding at 2-800 nM; purified native protein; label: 5'-fluorescein; single-stranded DNA

Sequence: CGGGAATTCTGGCTCTGCGACATGA [random sequence (random primer)]
- Kd: > 800 nM
